Measurements as given in patent US20200131176A1, “SELECTIVE INHIBITORS OF CLINICALLY IMPORTANT MUTANTS OF THE EGFR TYROSINE KINASE” (CS Pharmatech Limited, priority 2017, published 2020).
For part of its entries the source gives two or more results. Only these are listed. There may be further records. The values listed for one entry differ, and nothing given here explains why; they may come from other doses, times, organisms or constructs than stated.

Tested on: A431 cells
Assay: A431 inhibition assay (cell proliferation, CellTiter-Glo, 72 h)
Assay type: cell-based, human
Settings: read-out: A431 IC50 (nM) WT, cellular proliferation, wild type EGFR

Q: For `C=CC(=O)Nc1cc(Nc2nccc(-c3c[nH]c4ccccc34)n2)c(OC)cc1N(C)CCN(C)C` [AZD5104], which IC50 is on record?
A: 313 nM, 133 nM, 105 nM
